{"source": "PubChem BioAssay AID540256", "about": "(National Center for Advancing Translational Sciences (NCATS), 2011)", "note": "The campaign covered roughly 300,000 compounds. About 3,700 (1.2%) were called active. The inconclusive results got no clear call from the source; some entries with a clear call stand among them for comparison. Calls come from the whole dose curve; tested in HEK293 cells. Where the call is inconclusive, the potency comes from a doubtful curve fit. % is set by controls: 0 for no effect and ±100 for the full control effect; potency is the fitted concentration of half-maximal effect."}
{"assay": "qHTS for Inhibitors of binding or entry into cells for Lassa Virus; note: nearly all actives have a fitted effect of over 50% in size", "conditions": "Lassa virus pseudotype entry inhibition, cell reporter; activity change, negative = inhibition: at 37.9 µM (top of the series) unless noted"}
{"compound": "Cc1cc(NC(=O)C2CCN(S(=O)(=O)c3ccc4[nH]c(=O)oc4c3)CC2)ccc1Br", "Potency": "inconclusive: 35.5 µM [inhibitor, single point]"}
{"compound": "CC(C)(C)c1ccc(-n2ncc3c2CCCC3NC(=O)CCCn2cncn2)cc1", "note": "(configuration not stated)", "Potency": "inconclusive: 17.8 µM [inhibitor, partial curve, poor fit]"}
{"compound": "COc1ccc(-c2cn3cc(C(=O)NN)ccc3n2)cc1", "Potency": "inconclusive: 2.82 µM [inhibitor, full curve, poor fit]"}
{"compound": "CCCc1ccc(C(=O)NC(=O)c2ccccc2O)cc1", "Potency": "active: 10 µM"}
{"compound": "O=C(CSc1nnc(-c2ccc(OC(F)F)cc2)o1)N1CCOCC1", "Potency": "inactive"}
{"compound": "Cc1ccc(Cn2nnc3c(=O)[nH]c(C4CCN(S(=O)(=O)c5cc(C)ccc5C)CC4)nc32)cc1", "Potency": "active: 14.1 µM"}
{"compound": "COc1ccc2nc(NC(=O)c3nc(S(=O)(=O)Cc4cccc(C)c4)ncc3Cl)sc2c1", "Potency": "inconclusive: 17.8 µM [inhibitor, partial curve, poor fit]"}
{"compound": "COc1cccc(N2CCN(c3ccc4nnc(CCC(=O)Nc5ncccc5C)n4n3)CC2)c1", "Potency": "inconclusive: 35.5 µM [inhibitor, single point]"}
{"compound": "Cc1cc2occ(CC(=O)N(C)CC(=O)Nc3cccc(F)c3)c2cc1C", "Potency": "inactive"}
{"compound": "COc1ccc(CCNC(=O)NC2CCCCC2)cc1", "Potency": "inconclusive: 18.3 µM [inhibitor, partial curve]"}
{"compound": "Cn1nc(C(F)(F)F)c(-c2ccc(Br)cc2)c1NC(=O)Nc1ccc(F)cc1F", "Potency": "inconclusive: 35.5 µM [inhibitor, single point]"}
{"compound": "CCN(CC)c1ccc(N=Cc2c(O)n(Cc3ccccc3)c(=O)[nH]c2=O)cc1", "Potency": "inconclusive: 0.058 µM [inhibitor, full curve, poor fit]"}
{"compound": "CC(On1c(-c2ccccc2)nc2ccc(Cl)cc21)C(=O)O", "note": "(configuration not stated)", "Potency": "inconclusive: 20 µM [inhibitor, single point]"}
{"compound": "CCCN(CC(=O)Nc1cc(C)on1)CC(=O)Nc1ccc(F)c(F)c1F", "Potency": "inconclusive: 31.6 µM [inhibitor, single point]"}
{"compound": "Cc1cccc(C)c1NC(=S)N/N=C/c1ccc(OCCC(C)C)cc1", "Potency": "inconclusive: 8.2 µM [inhibitor, partial curve, poor fit]"}
{"compound": "COc1ccc2c(c1)c1c(c(=O)n(-c3cccc(Cl)c3)c(=O)n1CC(=O)N1CCCC1)n2C", "Potency": "inactive"}
{"compound": "O=C(Cc1ccc([N+](=O)[O-])cc1)c1ccccc1", "Potency": "inconclusive: 0.631 µM [activator, partial curve, poor fit]"}
{"compound": "CC(=O)NCc1nc2ccccc2n1Cc1ccccc1F", "Potency": "inactive"}
{"compound": "CCCOC(=O)c1ccc(Oc2cn[nH]c2-c2ccc(OCC)cc2O)cc1", "Potency": "active: 7.94 µM"}
{"compound": "CSc1cccc(NC(=O)C2CCN(C(=O)c3cnn(-c4ccccc4)c3-n3cccc3)CC2)c1", "Potency": "inconclusive: 35.5 µM [inhibitor, single point]"}
{"compound": "CCc1ccc(-n2c(=O)c3c4c(sc3n(CC(=O)c3ccc(Cl)cc3)c2=O)CCC4)cc1", "Potency": "inactive"}
{"compound": "COc1ccc(-c2csc(NC(=O)COc3ccc(N(C)S(=O)(=O)c4ccc(C)cc4)cc3)n2)cc1", "Potency": "inactive"}
{"compound": "CN(Cc1cccc(F)c1)C(=O)Cc1ccc(S(=O)(=O)N2CCOCC2)s1", "Potency": "inconclusive: 0.562 µM [activator, single point]"}
{"compound": "Nc1ccc2oc3ccc(N)cc3c(=O)c2c1", "Potency": "inconclusive: 16.4 µM [inhibitor, single point]"}
{"compound": "COc1ccc(N2CCN(CCCNC(=O)C(=O)c3c(C)[nH]c4ccccc34)CC2)cc1", "Potency": "inconclusive: 35.5 µM [activator, partial curve, poor fit]"}
{"compound": "CCC(c1nnnn1Cc1ccco1)N(CCc1ccccc1)Cc1cc2cc(C)ccc2[nH]c1=O", "note": "(configuration not stated)", "Potency": "inconclusive: 14.1 µM [inhibitor, partial curve, poor fit]"}
{"compound": "C/C(=C\\C(=O)c1ccccc1)NNc1nc2ccccc2s1", "Potency": "inactive"}
{"compound": "CCS(=O)(=O)c1ccc(OC)c(Nc2nccc(N(C)c3ccc4c(C)[nH]nc4c3)n2)c1", "Potency": "inconclusive: 11.2 µM [inhibitor, partial curve, poor fit]"}
{"compound": "COC(=O)c1nc2n(n1)C(c1cc(OC)ccc1OC)C(C(=O)Nc1ccc(C)cc1C)=C(C)N2", "note": "(configuration not stated)", "Potency": "inconclusive: 8.91 µM [activator, single point]"}
{"compound": "CN1CCN(C(=O)C2CCCN(S(=O)(=O)c3ccc(Br)cc3)C2)CC1", "note": "(configuration not stated)", "activity change, negative = inhibition": "inconclusive: 15% [activator]"}
{"compound": "Cc1ccc(NC(=O)C(Cc2c[nH]c3ccccc23)NC(=O)OCC(C)C)cc1", "note": "(configuration not stated)", "Potency": "inconclusive: 12.6 µM [inhibitor, partial curve, poor fit]"}
{"compound": "COC(=O)c1nnn(-c2cccc(Cl)c2)c1C(=O)OC", "Potency": "inactive"}
{"compound": "c1ccc(CN(Cc2ccco2)C(c2ccncc2)c2nnnn2C2CCCC2)cc1", "note": "(configuration not stated)", "Potency": "inactive"}
{"compound": "CCCS/C(N)=N/N=C/c1ccccc1O", "Potency": "inconclusive: 1.26 µM [activator, single point]"}
{"compound": "N#Cc1cc2c(nc1SCC(=O)N1CCOCC1)CCCCC2", "Potency": "inconclusive: 18.3 µM [inhibitor, single point]"}
{"compound": "COc1ccccc1N1CCN(C2CCCN(C(=O)CCC(=O)N(C)C)C2)CC1", "note": "(configuration not stated)", "Potency": "inactive"}
{"compound": "COc1ccccc1N1CCN(C(=O)CN2C(=O)COc3ccc(S(=O)(=O)N4CCC(C)CC4)cc32)CC1", "Potency": "inactive"}
{"compound": "O=C(NCCNc1ccc([N+](=O)[O-])cc1)c1cccc2c(Br)cccc12", "Potency": "inconclusive: 4.61 µM [inhibitor, partial curve, poor fit]"}
{"compound": "Cc1ccc(NC(=O)C2CCN(c3cc(C)nc4c(-c5ccc(Cl)cc5)c(C)nn34)CC2)c(C)c1", "Potency": "inconclusive: 7.08 µM [activator, full curve, poor fit]"}
{"compound": "Cc1ccc(NC(=O)c2cc(S(=O)(=O)N3CCCCC3)ccc2N2CCOCC2)cc1F", "Potency": "inconclusive: 23.1 µM [inhibitor, single point]"}
{"compound": "COc1ccc2[nH]c(C(=O)Nc3cccc(C)n3)cc2c1", "Potency": "inconclusive: 8.91 µM [inhibitor, partial curve, poor fit]"}
{"compound": "COc1ccc(C(=O)CSc2c(C(C)C)cnc3c2c(=O)n(C)c(=O)n3C)cc1", "Potency": "inconclusive: 10 µM [inhibitor, partial curve, poor fit]"}
